Reference: publication PMC11110727, “Exploiting thiol-functionalized benzosiloxaboroles for achieving diverse substitution patterns – synthesis, characterization and biological evaluation of promising antibacterial agents” (RSC Medicinal Chemistry, 2024)

Key:
[1] = test system: S. aureus MRSA clinical strains (NMI); experiment: Selectivity index SI = IC50/MIC; assay type: cell-based, Staphylococcus aureus; conditions: SI = IC50 (MRC-5)/MIC, from lowest and highest MIC values
[2] = test system: S. aureus ATCC 43300 MRSA; experiment: Selectivity index SI = IC50/MIC; assay type: cell-based, Staphylococcus aureus; conditions: SI = IC50 (MRC-5)/MIC

SMILES: C[Si]1(C)OB(O)c2cc(F)c(SC3CC(=O)NC3=O)c(F)c21 (stereo not shown) [Compound 12, 3-((5,7-Difluoro-3-hydroxy-1,1-dimethyl-1,3-dihydrobenzo[c][1,2,5]oxasilaborol-6-yl)thio)pyrrolidine-2,5-dione]
- SI range for S. aureus MRSA clinical strains (NMI) [1]: 13.4–26.8

SMILES: CC(=O)CSc1ccc2c(c1F)[Si](C)(C)OB2O [Compound 22, 1-((7-Fluoro-3-hydroxy-1,1-dimethyl-1,3-dihydrobenzo[c][1,2,5]oxasilaborol-6-yl)thio)propan-2-one]
- SI for S. aureus ATCC 43300 MRSA [2]: >32.0
- SI range for S. aureus MRSA clinical strains (NMI) [1]: >32.0

SMILES: C[Si]1(C)OB(O)c2ccc(SCC(=O)c3ccccc3)c(F)c21 [Compound 23, 2-((7-Fluoro-3-hydroxy-1,1-dimethyl-1,3-dihydrobenzo[c][1,2,5]oxasilaborol-6-yl)thio)-1-phenylethan-1-one]
- SI range for S. aureus MRSA clinical strains (NMI) [1]: 40.4–80.8

SMILES: CCOP(=O)(OCC)Sc1c(F)cc2c(c1F)[Si](C)(C)OB2O [Compound 24, S-(5,7-Difluoro-3-hydroxy-1,1-dimethyl-1,3-dihydrobenzo[c][1,2,5]oxasilaborol-6-yl) O,O-diethyl phosphorothioate]
- SI for S. aureus ATCC 43300 MRSA [2]: >32.0
- SI range for S. aureus MRSA clinical strains (NMI) [1]: >32.0

SMILES: C[Si]1(C)OB(O)c2ccc(SC(=O)c3ccc(C(F)(F)F)cc3)c(F)c21 [Compound 25, S-(7-Fluoro-3-hydroxy-1,1-dimethyl-1,3-dihydrobenzo[c][1,2,5]oxasilaborol-6-yl) 4-(trifluoromethyl)benzothioate]
- SI range for S. aureus MRSA clinical strains (NMI) [1]: 4.5–8.9
